Measured values as given in article doi:10.1101/2023.11.29.569239.

Sequences of proteins named here, by UniProt entry; tags and fusion partners are left off. A change or cut given only in a name is not applied to a line headed by its entry.
UniProt O00571: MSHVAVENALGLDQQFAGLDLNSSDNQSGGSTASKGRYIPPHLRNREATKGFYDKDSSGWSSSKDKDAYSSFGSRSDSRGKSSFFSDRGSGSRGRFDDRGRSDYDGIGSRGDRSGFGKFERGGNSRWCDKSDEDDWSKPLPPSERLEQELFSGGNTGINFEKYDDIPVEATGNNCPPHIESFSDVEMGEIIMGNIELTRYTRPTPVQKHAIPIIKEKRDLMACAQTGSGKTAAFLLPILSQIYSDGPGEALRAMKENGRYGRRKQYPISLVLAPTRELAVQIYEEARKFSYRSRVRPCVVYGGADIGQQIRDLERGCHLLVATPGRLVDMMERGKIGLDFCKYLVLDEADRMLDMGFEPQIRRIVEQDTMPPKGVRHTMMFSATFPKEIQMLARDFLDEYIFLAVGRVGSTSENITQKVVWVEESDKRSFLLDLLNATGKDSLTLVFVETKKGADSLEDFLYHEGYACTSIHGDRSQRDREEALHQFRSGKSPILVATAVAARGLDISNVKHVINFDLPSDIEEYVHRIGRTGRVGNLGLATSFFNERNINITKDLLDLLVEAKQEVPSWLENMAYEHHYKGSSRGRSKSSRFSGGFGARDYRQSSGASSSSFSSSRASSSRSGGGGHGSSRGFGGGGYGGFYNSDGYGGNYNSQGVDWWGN
UniProt O15523: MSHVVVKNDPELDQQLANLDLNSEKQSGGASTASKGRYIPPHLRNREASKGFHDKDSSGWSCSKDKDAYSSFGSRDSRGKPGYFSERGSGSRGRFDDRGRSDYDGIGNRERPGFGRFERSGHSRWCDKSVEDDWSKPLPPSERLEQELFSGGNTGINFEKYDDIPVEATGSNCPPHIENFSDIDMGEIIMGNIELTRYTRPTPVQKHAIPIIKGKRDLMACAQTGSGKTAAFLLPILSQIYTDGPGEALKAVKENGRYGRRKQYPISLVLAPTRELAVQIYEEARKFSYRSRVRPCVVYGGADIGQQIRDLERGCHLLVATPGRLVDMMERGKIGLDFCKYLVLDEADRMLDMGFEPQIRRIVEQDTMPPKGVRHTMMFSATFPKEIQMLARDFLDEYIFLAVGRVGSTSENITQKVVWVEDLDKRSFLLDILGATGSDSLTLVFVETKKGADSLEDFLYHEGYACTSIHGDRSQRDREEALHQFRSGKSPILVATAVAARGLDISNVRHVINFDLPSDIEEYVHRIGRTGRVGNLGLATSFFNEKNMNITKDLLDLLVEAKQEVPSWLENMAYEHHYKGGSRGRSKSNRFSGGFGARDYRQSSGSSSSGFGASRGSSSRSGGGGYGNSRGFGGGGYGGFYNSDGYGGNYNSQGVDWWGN

How the values were obtained:
Assay in all cases: EMSA
[1] = molecular target: MBP-ΔC DDX3X (UniProt O00571); conditions: 2 mM Mg2+, insignificant Kd change
[2] = molecular target: MBP-ΔN DDX3Y (UniProt O15523); conditions: 2 mM Mg2+, small, insignificant Kd increase
[3] = molecular target: MBP-ΔN DDX3X (UniProt O00571); conditions: 2 mM Mg2+, Kd significantly increased
[4] = molecular target: MBP-ΔC DDX3Y (UniProt O15523); conditions: 2 mM Mg2+, insignificant Kd change

Sequence: ACCGCUGCCGUCGCUCCG / UUUUUUUUUUUUUUUUUUUUUUUUCGGAGCGACGGCAGCGGU [dsRNA I (18-mer/42-mer)]
- binding result [1]: binds
- binding result [2]: binds
- binding result [3]: binds more weakly
- binding result [4]: binds

Construct, isoform or probe ends are uncertain for at least one entry. For some of these results: Weaker means in comparison with the reference protein, sequence or condition of that experiment.
